This assay can be described thus: qHTS Assay for Lipid Storage Modulators in Drosophila S3 Cells.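 On cell number change: cells counted by Cell Tracker Red CMTPX staining in the red channel.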 To be noted: BODIPY lipid droplet fluorescence, 18-24 h; for cell number change: measured here: cell count max response, cells fed with added oleic acid. Summed up:
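Drosophila S3 cells loaded with oleic acid (400 uM, as added) and compounds at several concentrations; lipid droplets imaged by 488-nm laser-scanning cytometry, 500–530 nm intensity and object ratio to cell channel. Percent activity normalized to 20 uM Triacsin C.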
On the technique in general: qHTS replaces the single test concentration by a dilution series.

Setting [1] is: measured here: cell number channel AC50, cells fed with added oleic acid.
Where [2] appears, read: measured here: lipid fluorescence (Fed channel) AC50, cells fed with added oleic acid.

Our source for the AC50 and cell number change values is PubChem BioAssay AID2685 (National Center for Advancing Translational Sciences (NCATS), 2010).

The list shows a part of the results. These are further read-outs of the screen, such as a control signal, another cell line or another target. No call is given for them. Compounds called inactive in the main read-out are mostly missing here. Words in brackets tell the shape of the fitted curve; partial curves, single points and poor fits give uncertain potencies.

One may read the AC50 as the concentration giving half of the maximal activity seen. A high value points to weaker potency. With `CCOC(=O)c1cc(-c2cccnc2)nn1-c1ccccn1`, the AC50 is 2.31 µM [rising, partial curve, poor fit] under setting [1] and 1.3 µM [rising, partial curve] under setting [2].
Turning to `COc1ccc(C(=O)NCCNC(=O)c2cnccn2)cc1`, the cell number change worked out at 13.2%. In addition, under setting [2], the AC50 is 5.62 µM [falling, single point].
In the case of `O=C(CSc1cccc[n+]1[O-])Nc1cccc(S(=O)(=O)NC2=NCCCCC2)c1`, the cell number change came out at 17.3%.
With `COc1ccc(C)cc1NC(=O)NCc1ccccn1`, the cell number change was determined as 16.8%. Also, the AC50 under setting [2] is 16.4 µM [rising, single point].
Take `CS(=O)(=O)N(CC(=O)Nc1cccc(Cl)c1Cl)c1ccccc1`: the cell number change is 47.1%. Further, the AC50 under setting [1] was 8.2 µM [rising, partial curve].
Turning to `O=C1C2C3C=CC(C4CC34)C2C(=O)N1/N=C/c1ccc(-c2ccccc2[N+](=O)[O-])o1` (stereo not drawn), the cell number change was -11.5%. Under setting [2], the AC50 is 2.31 µM [rising, partial curve].
`CCOC(=O)c1[nH]c2ccc(OC)cc2c1NC(=O)c1ccccc1C(=O)O`: the cell number change was -13.9%. Also, the AC50 under setting [1] was 0.13 µM [falling, full curve, poor fit].
Take `O=C(NC(=S)N1CCN(C/C=C/c2ccccc2)CC1)c1ccco1`: the cell number change is -17.2%. Moreover, under setting [2], the concentration at half-maximal activity (AC50) is 20.6 µM [falling, single point].
Take `Cc1cc(F)ccc1S(=O)(=O)Nc1ccc(C(=O)N2CCCCCC2)cc1`: the cell number change is -26.9%. In addition, the AC50 under setting [1] is 0.146 µM [falling, full curve, poor fit]. In addition, under setting [2], the AC50 is 20.6 µM [falling, single point].
Take `O=C(NCc1ccco1)c1cnccn1`: the cell number change came to 9.39%. Besides, under setting [1], the AC50 is 0.116 µM [rising, full curve, poor fit].
Turning to `O=C(N=Nc1c(O)[nH]c2ccc(Br)cc12)c1cc(-c2cccc3ccccc23)n[nH]1`, the cell number change was -66.7%. The AC50 under setting [1] was 29.1 µM [falling, single point].
On to `CCOc1ncccc1C(=O)NCc1ccc(OC)cc1`, for which the cell number change worked out at 98.6%. Also, the AC50 under setting [1] was 14.6 µM [rising, partial curve]. In addition, the AC50 under setting [2] was 6.51 µM [rising, single point].
`O=C(NC1CCCC1)C1CCN(C(=O)Nc2cccc(Cl)c2)CC1`: the cell number change was determined as 7.26%. Also, the AC50 under setting [2] is 0.58 µM [falling, single point].
With `C=CCn1c(NCCOC)nc2c1c(=O)n(C)c(=O)n2C`, the cell number change was found to be 4.04%.
For the compound `CN(C)C(=S)Oc1ccccc1-c1ccccc1OC(=S)N(C)C`, the cell number change came out at 12.3%. Further, the AC50 under setting [2] was 29.1 µM [rising, single point].
On to `Cc1c(CCC(=O)O)c(=O)oc2cc(O)ccc12`, for which the cell number change came out at 4.91%.
For `CCN(CC)CCCNC(=O)c1[nH]c2ccccc2c1Sc1ccc(Cl)cc1`, the cell number change was -23.6%. In addition, the AC50 under setting [2] was 29.1 µM [rising, single point].
As to `COc1ccccc1CNC(=O)CN(Cc1ccc(Cl)cc1)S(C)(=O)=O`, the cell number change was -15.1%.
As to `CCCC(C)NC(=O)CN(Cc1ccco1)S(=O)(=O)c1ccccc1` (stereo not drawn), the cell number change was -18.5%. Moreover, the AC50 under setting [2] is 29.1 µM [falling, single point].
As to `COc1cc(C)c(S(=O)(=O)NCc2ccc3c(c2)OCO3)cc1C`, the cell number change came out at 93.5%. In addition, the AC50 under setting [1] is 2.31 µM [rising, full curve]. Besides, under setting [2], the AC50 was 2.06 µM [rising, full curve].
Consider `Cc1ccc(-n2nc(C)c(Sc3ccccc3[N+](=O)[O-])c2N)cc1`, for which the cell number change was 18.6%. Moreover, under setting [2], the AC50 is 29.1 µM [rising, single point].
For the compound `N#Cc1ccc(CNc2cnccn2)cc1`, the cell number change was -21%. For the same compound, the AC50 under setting [1] is 0.00461 µM [rising, full curve, poor fit].
With `Cc1cc(C)cc(NC(=O)CCC(=O)N2CCSc3ccccc32)c1`, the cell number change is 18.7%.
As to `O=C(CN1CCN(Cc2ccccc2Cl)C1=O)NC1CCCCCC1`, the cell number change turned out to be 3.88%. Further, the AC50 under setting [2] was 3.26 µM [rising, single point].
Turning to `CCCc1nn(C)c2c(=O)[nH]c(-c3ccccc3OCC)nc12`, the cell number change was -6.27%. Besides, the AC50 under setting [2] was 0.13 µM [rising, full curve, poor fit].
For the compound `O=C(CCc1c[nH]c2ccccc12)NC1CC1`, the cell number change was determined as 16.2%. The AC50 under setting [2] was 0.651 µM [falling, single point].
As to `O=C(NC(=S)Nc1ccccc1Br)C1CCC1`, the cell number change is -23.8%. The AC50 under setting [2] was 1.64 µM [rising, partial curve].
Regarding `N=c1c2c(n(Cc3cccc(Cl)c3)c3c1CCC3)CCCC2`, the cell number change is -67.4%. For the same compound, the AC50 under setting [1] was 20.6 µM [falling, single point]. Further, under setting [2], the AC50 is 29.1 µM [falling, single point].
Take `COc1ccc(CN2CCCC(C(=O)N3CCCC3)C2)c(OC)c1` (stereo not drawn): the cell number change amounted to 16.6%. In addition, the AC50 under setting [2] is 1.3 µM [falling, partial curve].
In the case of `COC(=O)CNC(=O)COc1ccccc1`, the AC50 under setting [2] was 29.1 µM [falling, partial curve].
`COc1ccc(Nc2ncnc3c2cnn3-c2ccccc2)cc1OC`: the cell number change is -5.03%. Besides, the AC50 under setting [2] is 0.0651 µM [rising, full curve, poor fit].
In the case of `Cc1nn(C(C)C(=O)N2CCN(c3ccccn3)CC2)c(=O)c2cc3occc3n12` (stereo not drawn), the cell number change was -6.5%.
Regarding `Cc1ccccc1NC(=O)CSc1nc2cc3c(cc2cc1C)CCC3`, the cell number change was determined as 5.46%.
With `O=C(c1ccc2nc3ccccc3c(=O)n2c1)N1CCN(Cc2ccc3c(c2)OCO3)CC1`, the cell number change was -14.4%. The AC50 under setting [2] was 29.1 µM [rising, single point].
For the compound `c1ccc2c(c1)CC1(CCCC1)n1nnnc1-2`, the cell number change is -14.2%. The AC50 under setting [2] is 0.00517 µM [falling, full curve, poor fit].
Take `CCN(C(=O)c1cc(S(=O)(=O)N2CCc3ccccc32)cn1C)c1ccccc1`: the cell number change was -5.19%. Besides, the AC50 under setting [2] is 2.91 µM [falling, partial curve, poor fit].
Consider `CN(C)c1ccc(C(=O)N(Cc2ccccc2)Cc2ccccc2)cc1`, for which the cell number change was found to be 4.4%. Under setting [2], the AC50 is 32.6 µM [rising, single point].
Take `COc1ccc(OC)c(S(=O)(=O)Nc2ccccc2F)c1`: the cell number change is -124%. Besides, under setting [1], the AC50 was 32.6 µM [falling, partial curve]. The AC50 under setting [2] is 0.0517 µM [falling, full curve, poor fit].
Consider `CSc1nnc(SCC(=O)NC(=O)c2ccccc2)s1`, for which the cell number change worked out at 2.5%.
`O=C(COC(=O)CSc1ccc(Cl)cc1)NCCc1ccccc1`: the AC50 under setting [1] is 0.461 µM [rising, single point].
Take `Cc1cc(C)nc(N2CCC(C(=O)NCCc3ccccc3)CC2)n1`: the cell number change was found to be 70.1%. Under setting [1], the concentration at half-maximal activity (AC50) is 11.6 µM [rising, partial curve, poor fit]. Besides, the AC50 under setting [2] was 14.6 µM [rising, partial curve].
